In paper PMC12046000 one finds binding data, which are given here for one substance.

By UniProt entry, the sequences of proteins in these tests, tags left out.
UniProt O75582: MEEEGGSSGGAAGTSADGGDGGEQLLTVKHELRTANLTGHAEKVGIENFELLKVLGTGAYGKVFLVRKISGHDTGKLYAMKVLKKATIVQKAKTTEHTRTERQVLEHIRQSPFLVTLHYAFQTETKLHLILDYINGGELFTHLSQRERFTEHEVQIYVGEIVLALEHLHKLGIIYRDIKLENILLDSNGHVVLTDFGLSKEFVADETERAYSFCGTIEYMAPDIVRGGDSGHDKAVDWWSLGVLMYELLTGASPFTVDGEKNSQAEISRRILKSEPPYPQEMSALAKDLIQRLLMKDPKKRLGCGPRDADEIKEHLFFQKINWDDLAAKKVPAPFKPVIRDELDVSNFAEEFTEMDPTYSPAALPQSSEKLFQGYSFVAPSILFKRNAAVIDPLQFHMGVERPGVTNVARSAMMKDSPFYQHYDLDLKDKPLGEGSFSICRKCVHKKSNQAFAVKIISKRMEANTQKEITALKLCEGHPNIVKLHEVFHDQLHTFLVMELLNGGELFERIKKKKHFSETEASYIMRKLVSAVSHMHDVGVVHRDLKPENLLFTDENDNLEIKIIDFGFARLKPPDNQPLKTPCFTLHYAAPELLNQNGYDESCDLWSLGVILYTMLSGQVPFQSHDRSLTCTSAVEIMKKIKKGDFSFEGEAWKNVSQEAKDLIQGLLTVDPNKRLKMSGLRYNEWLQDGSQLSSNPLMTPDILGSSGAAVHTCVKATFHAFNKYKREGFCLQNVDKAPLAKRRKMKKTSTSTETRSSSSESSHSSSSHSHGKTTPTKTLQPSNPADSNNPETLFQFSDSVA
UniProt O95863: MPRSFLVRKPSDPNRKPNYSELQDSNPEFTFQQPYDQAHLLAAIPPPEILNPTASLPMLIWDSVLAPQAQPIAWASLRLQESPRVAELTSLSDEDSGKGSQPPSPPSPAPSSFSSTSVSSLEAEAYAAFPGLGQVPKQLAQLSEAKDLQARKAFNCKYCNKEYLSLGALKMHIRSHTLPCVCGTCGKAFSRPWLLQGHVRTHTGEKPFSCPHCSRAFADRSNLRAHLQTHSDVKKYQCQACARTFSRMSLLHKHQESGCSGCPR

These are yes or no findings as the source states them, for the method shown. In cells and extracts the contact can be indirect. Some results given as binding are weak or reduced against the parent protein; the word gives no strength.

This assay has as its target Flag–MSK1 (mitogen- and stress-activated protein kinase 1, wild type) (UniProt O75582). The assay is described as follows: co-IP; HEK293T cells co-transfected with HA–Snail and Flag–MSK1; lysates (1% Triton X-100, 150 mM NaCl, pH 7.4) immunoprecipitated with anti-Flag or anti-HA, blotted with anti-HA or anti-Flag.

Take HA–Snail (from UniProt O95863 1-264): the binding entry is “binds”.
